We go through 24 compounds from PubChem BioAssay AID330 (DTP/NCI, 2004).

The subject of the assay is P388 leukemia ip, CD2F1 mice, survival T/C. The assay can be described thus: NCI In Vivo Anticancer Drug Screen. Data for tumor model P388 Leukemia (intraperitoneal) in CD2F1 (CDF1) mice. As to conditions: T/C endpoint: median survival time, higher T/C = longer survival.
The mark [1] stands for this setting: dose: 50.0 mg/kg/injection, schedule: Q01DX005 (ip), vehicle: Klucel (hydroxypropylcellulose) (HPC).
Setting [2] is: dose: 100.0 mg/kg/injection, schedule: Q01DX005 (ip), vehicle: Klucel (hydroxypropylcellulose) (HPC).
Where [3] appears, read: dose: 200.0 mg/kg/injection, schedule: Q01DX005 (ip), vehicle: saline with Tween-80.
Where [4] appears, read: dose: 100.0 mg/kg/injection, schedule: Q01DX009 (ip), vehicle: saline.
Setting [5] is: dose: 200.0 mg/kg/injection, schedule: Q01DX009 (ip), vehicle: saline.
[6] abbreviates: dose: 50.0 mg/kg/injection, schedule: Q01DX009 (ip), vehicle: distilled water + alcohol.
Setting [7] is: dose: 200.0 mg/kg/injection, schedule: Q01DX009 (ip), vehicle: Klucel (hydroxypropylcellulose) (HPC).
Setting [8] is: dose: 100.0 mg/kg/injection, schedule: Q01DX009 (ip), vehicle: saline with Tween-80.
Setting [9] is: dose: 200.0 mg/kg/injection, schedule: Q01DX009 (ip), vehicle: saline with Tween-80.
The mark [10] stands for this setting: dose: 50.0 mg/kg/injection, schedule: Q01DX009 (ip), vehicle: saline with Tween-80.

The list is a part of this screen's results and no random one: it is rich in T/C values a quarter to a half above the control, in often repeated tests (any T/C) and in doses without a T/C. Other doses and runs of a compound stand elsewhere. T/C gives the treated animals as a percentage of the vehicle group. Some entries give survivors of the animals treated and no T/C: the source holds a T/C of zero for them, seemingly a mark for toxic or unscored doses. Some survivor counts are full or nearly so, which does not show that the dose was tolerated: the source hardly ever lists a survival T/C far under the control, and the zero likely stands for such cases as well. Counts of survivors are from the toxicity check (mostly the fifth day) where no day follows; animals may have died later. Schedule codes are those of the source, read here as Q, the interval in days (D) or hours (H), X, the number of doses. Some entries hold several experiments; their values stand side by side, smallest first. Where survival is the endpoint, the PubChem record calls one and a half times the control and up active, and a quarter to a half above the control has no call in these data; cut-offs in other NCI protocols can differ. Counts like (3×) stand for listed records that agree. Some T/C values are followed by the survivors on the day toxicity was checked, most often the fifth; without a count, all were alive then.

In the case of `Cc1cc(O)c2c(c1O)C(=O)C13C(=C2O)C(=O)C2C(O)C1C1C(O)C3C(=O)C3=C(O)c4c(O)cc(C)c(O)c4C(=O)C321` (stereo unspecified), the T/C is, setting by setting: (dose: 1.56 mg/kg/injection, schedule: Q01DX009 (ip), vehicle: saline with Tween-80) 127 % of control; (dose: 3.0 mg/kg/injection, schedule: Q01DX005 (ip), vehicle: saline with Tween-80) 128 % of control; (dose: 3.13 mg/kg/injection, schedule: Q01DX009 (ip), vehicle: saline with Tween-80) 134 % of control; (dose: 6.0 mg/kg/injection, schedule: Q01DX005 (ip), vehicle: saline with Tween-80) 128 and 131 % of control. Moreover, the survivor count (dose: 6.25 mg/kg/injection, schedule: Q01DX009 (ip), vehicle: saline with Tween-80) is reported as 4 of 6; the survivor count (dose: 12.0 mg/kg/injection, schedule: Q01DX005 (ip), vehicle: saline with Tween-80) was 0 of 10 and 5 of 6.

On to `c1cc(-c2[nH]c3cc(C4=NCCN4)ccc3c2-c2cc3ccc(C4=NCCN4)cc3[nH]2)ccc1C1=NCCN1`, for which the survivor count is, setting by setting: under setting [1], 0 of 5; under setting [2], 1 of 5; (dose: 200.0 mg/kg/injection, schedule: Q01DX005 (ip), vehicle: Klucel (hydroxypropylcellulose) (HPC)) 0 of 5.

`CC(C)(C)C1CCC2(CC1)OCC1CCCN12` (stereo unspecified): the survivor count under setting [3] was 0 of 6.

As for `Oc1ccc(CCl)c2cccnc12`, under setting [4], the T/C was 130 % of control. Moreover, the survivor count was 4 of 6 and 6 of 6 under setting [5]; 0 of 6 (dose: 400.0 mg/kg/injection, schedule: Q01DX009 (ip), vehicle: saline).

With `C=C1C(=O)OC2(C)C3CCC(C3)C12` (stereo unspecified), the survivor count under setting [5] is reported as 0 of 6.

With `COc1ccc2c(c1)C(Br)CCCC2=O` (stereo unspecified), the T/C runs as follows: under setting [6], 99 [5 of 6 alive], 107, 118 % of control; (dose: 100.0 mg/kg/injection, schedule: Q01DX009 (ip), vehicle: distilled water + alcohol) 99, 106, 107, 122 % of control; (dose: 200.0 mg/kg/injection, schedule: Q01DX009 (ip), vehicle: distilled water + alcohol) 108, 111 (2×), 127 % of control. Besides, the survivor count under setting [6] is 6 of 6.

In the case of `CCOC(=O)N[C@H]1CCc2cc(OC)c(OC)c(OC)c2-c2ccc(SC)c(=O)cc21`, the T/C reads like this: (dose: 0.38 mg/kg/injection, schedule: Q01DX009 (ip), vehicle: other) 147 % of control; (dose: 0.38 mg/kg/injection, schedule: Q01DX009 (ip), vehicle: saline with Tween-80) 130 % of control; (dose: 0.75 mg/kg/injection, schedule: Q01DX009 (ip), vehicle: saline with Tween-80) 130 % of control; (dose: 1.5 mg/kg/injection, schedule: Q01DX009 (ip), vehicle: other) 145 % of control; (dose: 1.5 mg/kg/injection, schedule: Q01DX009 (ip), vehicle: saline with Tween-80) 139 % of control; (dose: 3.0 mg/kg/injection, schedule: Q01DX009 (ip), vehicle: saline with Tween-80) 130 % of control. Moreover, the survivor count runs as follows: (dose: 6.0 mg/kg/injection, schedule: Q01DX009 (ip), vehicle: other) 5 of 6; (dose: 12.0 mg/kg/injection, schedule: Q01DX009 (ip), vehicle: other) 5 of 6; (dose: 24.0 mg/kg/injection, schedule: Q01DX009 (ip), vehicle: other) 4 of 6.

Consider `CC(=O)NC1C=CC(=O)O1` (stereo unspecified), for which the T/C is 136 % of control (dose: 3.1 mg/kg/injection, schedule: Q01DX010 (ip), vehicle: saline); 145 % of control (dose: 4.7 mg/kg/injection, schedule: Q01DX010 (ip), vehicle: saline); 136 % of control (dose: 7.0 mg/kg/injection, schedule: Q01DX010 (ip), vehicle: saline).

With `COC1NC(=O)N(C(C)C)C1(C)C` (stereo unspecified), the survivor count under setting [4] was 3 of 6.

For the compound `C[n+]1c(-c2ccc(/C=N/NC(=O)c3ccc(C(=O)N/N=C/c4ccc(-c5cn6ccccc6[n+]5C)cc4)c(O)c3O)cc2)cn2ccccc21`, the survivor count under setting [3] was 0 of 6.

For the compound `COc1ccc(NC(CCN2CCN(c3ccccc3)CC2)=NC(C)(C)C)cc1`, under setting [7], the survivor count is reported as 1 of 6.

Consider `Oc1ccc(C(O)CNCCCCCCNCC(O)c2ccc(O)c(O)c2)cc1O` (stereo unspecified), for which the survivor count was 2 of 6 under setting [4] and 0 of 6 under setting [5].

Regarding `O=S(=O)(c1ccccc1)C(SC(=S)Sc1ccccc1)Sc1ccccc1` (stereo unspecified), the survivor count is, setting by setting: under setting [8], 0 of 6; under setting [9], 0 of 6.

In the case of `CC[As](CC)SC1CCC2(C)C(=CCC3C4CCC(=O)C4(C)CCC32)C1` (stereo unspecified), the T/C (dose: 100.0 mg/kg/injection, schedule: Q01DX009 (ip), vehicle: distilled water + Tween-80) is 139 % of control. In addition, the survivor count (dose: 200.0 mg/kg/injection, schedule: Q01DX009 (ip), vehicle: distilled water + Tween-80) was 2 of 6 and 3 of 6.

`O=NNc1ncc(Br)cc1Br`: the T/C runs as follows: (dose: 12.5 mg/kg/injection, schedule: Q01DX009 (ip), vehicle: water) 147 % of control; (dose: 25.0 mg/kg/injection, schedule: Q01DX005 (ip), vehicle: water) 128, 129, 147 % of control; (dose: 25.0 mg/kg/injection, schedule: Q01DX009 (ip), vehicle: water) 144 % of control; (dose: 50.0 mg/kg/injection, schedule: Q01DX005 (ip), vehicle: water) 144 % of control; (dose: 50.0 mg/kg/injection, schedule: Q01DX009 (ip), vehicle: water) 142 % of control. Moreover, the survivor count reads like this: (dose: 200.0 mg/kg/injection, schedule: Q01DX005 (ip), vehicle: water) 5 of 6 and 6 of 6; (dose: 400.0 mg/kg/injection, schedule: Q01DX005 (ip), vehicle: water) 0 of 6.

In the case of `Cc1ccc2nc(N)nnc2c1`, under setting [7], the survivor count is given as 1 of 6.

As for `COC(=O)CCCOc1ccc(N(CCCl)CCCl)cc1`, under “dose: 400.0 mg/kg/injection, schedule: Q04DX003 (ip), vehicle: Klucel (hydroxypropylcellulose) (HPC)”, the survivor count was 0 of 6.

Regarding `CCC1OC(OC)C=CC1=O` (stereo unspecified), the T/C was 137 % of control (dose: 50.0 mg/kg/injection, schedule: Q01DX005 (ip), vehicle: saline); 129 % of control under setting [2]; 137 % of control (dose: 100.0 mg/kg/injection, schedule: Q01DX005 (ip), vehicle: saline). The survivor count (dose: 200.0 mg/kg/injection, schedule: Q01DX005 (ip), vehicle: saline) is recorded as 0 of 6.

With `O=C1C2(Cl)C3(Cl)C4(Cl)C(Cl)(Cl)C5(Cl)[C@]3(Cl)C1(Cl)[C@]5(Cl)C24Cl` (stereo partly specified), the survivor count reads like this: (dose: 50.0 mg/kg/injection, schedule: Q01DX009 (ip), vehicle: Klucel (hydroxypropylcellulose) (HPC)) 4 of 6; under setting [10], 3 of 6 and 6 of 6; (dose: 100.0 mg/kg/injection, schedule: Q01DX009 (ip), vehicle: Klucel (hydroxypropylcellulose) (HPC)) 5 of 6; under setting [8], 0 of 6; under setting [7], 1 of 6; under setting [9], 0 of 6. The survivor count (dose: 400.0 mg/kg/injection, schedule: Q01DX009 (ip), vehicle: Klucel (hydroxypropylcellulose) (HPC)) is 2 of 6.

Regarding `CC(=O)Nc1cc2cccnc2sc1=O`, under setting [1], the survivor count is 6 of 6.

As for `COc1cccc(-c2nnc(-c3nc[nH]c3C)o2)c1`, under “dose: 400.0 mg/kg/injection, schedule: Q04DX002 (ip), vehicle: Klucel (hydroxypropylcellulose) (HPC)”, the survivor count is recorded as 2 of 6.

With `CCC1CN2CCc3cc(OC)c(OC)cc3C2CC12CO2` (stereo unspecified), the survivor count runs as follows: under setting [10], 5 of 6; under setting [8], 2 of 6; under setting [9], 0 of 6.

As to `O=C(O)c1c(Cl)n(Cc2ccc(Cl)cc2Cl)c2ccccc12`, the survivor count (dose: 60.0 mg/kg/injection, schedule: Q01DX005 (ip), vehicle: Klucel (hydroxypropylcellulose) (HPC)) is listed as 6 of 6.

Regarding `CC1OC(OC2C(O[C@H]3CC[C@@]4(C)C(=CC[C@H]5[C@@H]6C[C@@H]7O[C@]8(CC[C@H](C)CN8)[C@@H](C)[C@@H]7[C@@]6(C)CC[C@@H]54)C3)OC(CO)C(O)C2OC2OC(CO)C(O)C(O)C2O)C(O)C(O)C1O` (stereo partly specified), the survivor count under setting [10] was 4 of 6.
